# Data from PMC9506415.
# These are yes or no findings as the source states them, for the method shown. In cells and extracts the contact can be indirect. Here binding means that the protein was enriched with, or labelled near, the bait; the list need not be complete.
# Molecular target: human fibronectin (human)
# Test: affinity purification with mass spectrometry; human FN coupled to Sepharose 4FF; tryptic digest of bovine gelatin loaded in 20 mM PBS pH 7.4, washed, eluted with 3 M urea (sample 1), or undigested gelatin bound, eluted and then digested with trypsin (sample 2); peptides identified by HPLC-MS/MS against bovine type I collagen; only the target purified
row,binding,Binder
1,binds,"GPAGPSGPAGK [gelatin peptide 13, α2.931–941, …]"
2,binds,"GETGPAGPAGPIGPVGAR [gelatin peptide 4, α1.889–906, …]"
3,binds,"GFSGLDGAK [gelatin peptide α1.91–99, …]"
